# Reference: PubChem BioAssay AID1259254 (NCATS, 2017)
# Aim: 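Finding genes that stop cells copying their DNA twice in one cycle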 (primary screen)
# Cells: human HCT116 colorectal cancer cells
# Reagents: single siRNA against human genes
# Time to read-out: 3 days
# Detection: 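Nuclei stained with Hoechst and imaged; cell-cycle phase assigned by DNA content; G2 share scaled per plate, non-targeting siRNA 0%, GMNN siRNA 100%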
# Reading the numbers: G2 robust z-score and G2 cells, % of GMNN control: higher = more G2 cells, more excess DNA replication; raw share of cells in G2: higher = larger share of cells with G2 DNA content
# Active means: 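Active siRNAs have a G2 robust z of 5 or more median absolute deviations over the median, which in these data means about 38% or higher of GMNN control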
# The deposit covers about 59,000 reagents; below is an unselected part. In the full data, about 1,550 (2.6%) got an active call. 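G2 share is only a proxy for re-replication; each gene was hit by three separate siRNAs, and active genes were retested.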 Raw values are not corrected between plates. Reagents against one gene are numbered here. The record does not give: the amount of reagent.
Target gene,reagent,G2 robust z-score,"G2 cells, % of GMNN control",raw share of cells in G2 (%),Outcome
TRAPPC10,1,-0.199,1.57,5.31,inactive
TRAPPC10,2,-0.839,-2.94,4.22,inactive
TRAPPC10,3,1.37,12.6,9.3,inactive
L3MBTL4,1,1.44,13.1,11.8,inactive
L3MBTL4,2,-0.0194,2.83,6.18,inactive
L3MBTL4,3,1.06,10.4,8.42,inactive
PTRH2,1,1.3,12.1,8.72,inactive
PTRH2,2,-0.226,1.37,4.33,inactive
PTRH2,3,0.0124,3.05,7.34,inactive
EOLA1,1,-0.427,-0.0395,2.91,inactive
EOLA1,2,-0.0744,2.44,5.12,inactive
EOLA1,3,0.0579,3.37,4.06,inactive
EOLA1,4,-0.479,-0.4,3.49,inactive
EOLA1,5,4.03,31.3,14.5,inactive
EOLA1,6,1.98,16.9,8.06,inactive
LINC01587,1,1.07,10.5,10.1,inactive
LINC01587,2,-0.454,-0.229,3.85,inactive
LINC01587,3,-1.15,-5.12,1.54,inactive
TNIP1,1,1.95,16.7,12.9,inactive
TNIP1,2,2.03,17.2,11.1,inactive
TNIP1,3,-0.751,-2.32,2.56,inactive
FHIT,1,4.44,34.2,21.3,inactive
FHIT,2,-1.18,-5.31,2.14,inactive
FHIT,3,-0.34,0.579,3.75,inactive
ARMC9,1,0.226,4.56,6.34,inactive
ARMC9,2,-0.326,0.673,4.6,inactive
ARMC9,3,-0.63,-1.46,1.98,inactive
NAV2,1,-0.372,0.352,4.23,inactive
NAV2,2,0.0894,3.6,4.13,inactive
NAV2,3,0.513,6.58,5.01,inactive
LRRC15,1,5.7,43.1,20.5,active
LRRC15,2,4.36,33.7,22,inactive
LRRC15,3,0.575,7.01,7.65,inactive
CSN1S2AP,1,0.449,6.13,6.09,inactive
CSN1S2AP,2,0.66,7.61,6.59,inactive
CSN1S2AP,3,0.14,3.95,5.78,inactive
ASB7,1,-0.149,1.92,3.28,inactive
ASB7,2,0.266,4.84,6,inactive
ASB7,3,-0.0995,2.27,3.82,inactive
MYRF,1,-1.01,-4.11,3.37,inactive
MYRF,2,-0.396,0.18,4.15,inactive
MYRF,3,0.532,6.71,6.15,inactive
CRACR2A,1,2.27,18.9,11.8,inactive
CRACR2A,2,-0.646,-1.58,4.77,inactive
CRACR2A,3,0.27,4.86,5.96,inactive
DNAL1,1,1.18,11.3,8.96,inactive
DNAL1,2,-1.4,-6.89,2.56,inactive
DNAL1,3,0.205,4.41,5.79,inactive
PLEKHA2,1,-0.404,0.128,2.73,inactive
PLEKHA2,2,-0.246,1.24,5.12,inactive
PLEKHA2,3,0.443,6.09,7.34,inactive
ATP13A2,1,0.658,7.6,8.05,inactive
ATP13A2,2,-0.586,-1.15,4.39,inactive
ATP13A2,3,1.46,13.2,9.53,inactive
SLC22A15,1,-0.183,1.68,5.04,inactive
SLC22A15,2,-1.03,-4.26,2.56,inactive
SLC22A15,3,6.46,48.4,27.7,active
TNFRSF11B,1,-0.712,-2.04,4.43,inactive
TNFRSF11B,2,-0.219,1.43,5.33,inactive
TNFRSF11B,3,-0.849,-3,2.17,inactive
TLN2,1,-0.808,-2.72,4.3,inactive
TLN2,2,0.221,4.52,5.83,inactive
TLN2,3,-0.494,-0.507,4.6,inactive
G6PC1,1,0.00497,3,5.77,inactive
G6PC1,2,-1.63,-8.47,1.75,inactive
G6PC1,3,0.952,9.67,6.41,inactive
SLCO5A1,1,0.0511,3.33,6.82,inactive
SLCO5A1,2,0.736,8.14,7.14,inactive
SLCO5A1,3,-0.532,-0.778,4.5,inactive
FMNL3,1,1.06,10.4,10.5,inactive
FMNL3,2,-1.3,-6.21,2.3,inactive
FMNL3,3,1.08,10.6,8.48,inactive
IFT70A,1,5.74,43.4,22.5,active
IFT70A,2,0.566,6.95,5.18,inactive
IFT70A,3,0.653,7.56,5.32,inactive
ADGRL4,1,1.79,15.6,11.4,inactive
ADGRL4,2,1.15,11.1,8.38,inactive
ADGRL4,3,-0.504,-0.581,3.09,inactive
SYNC,1,0.791,8.53,4.71,inactive
SYNC,2,2.95,23.7,14.3,inactive
SYNC,3,0.507,6.53,7.16,inactive
BANF2,1,0.315,5.18,5.57,inactive
BANF2,2,-0.523,-0.714,2.69,inactive
BANF2,3,-0.367,0.388,3.2,inactive
MAGEA4,1,0.249,4.72,5.06,inactive
MAGEA4,2,3.65,28.7,17.2,inactive
MAGEA4,3,-0.915,-3.47,2.85,inactive

4 of these entries, reformatted.
{"Target gene":"ADGRL4","reagent":3,"G2 robust z-score":-0.504,"G2 cells, % of GMNN control":-0.581,"raw share of cells in G2 (%)":3.09,"Outcome":"inactive"}
{"Target gene":"SYNC","reagent":1,"G2 robust z-score":0.791,"G2 cells, % of GMNN control":8.53,"raw share of cells in G2 (%)":4.71,"Outcome":"inactive"}
{"Target gene":"SYNC","reagent":2,"G2 robust z-score":2.95,"G2 cells, % of GMNN control":23.7,"raw share of cells in G2 (%)":14.3,"Outcome":"inactive"}
{"Target gene":"SYNC","reagent":3,"G2 robust z-score":0.507,"G2 cells, % of GMNN control":6.53,"raw share of cells in G2 (%)":7.16,"Outcome":"inactive"}
